No constants are given. Whether binding was seen depends on the method and setting. In cells and extracts the contact can be indirect. Some entries that bind do so weakly or less than the wild type.
B1: WDR18 (protein, UniProt Q9BV38 1-432)
chain: MAAPMEVAVCTDSAAPMWSCIVWELHSGANLLTYRGGQAGPRGLALLNGEYLLAAQLGKNYISAWELQRKDQLQQKIMCPGPVTCLTASPNGLYVLAGVAESIHLWEVSTGNLLVILSRHYQDVSCLQFTGDSSHFISGGKDCLVLVWSLCSVLQADPSRIPAPRHVWSHHALPITDLHCGFGGPLARVATSSLDQTVKLWEVSSGELLLSVLFDVSIMAVTMDLAEHHMFCGGSEGSIFQVDLFTWPGQRERSFHPEQDAGKVFKGHRNQVTCLSVSTDGSVLLSGSHDETVRLWDVQSKQCIRTVALKGPVTNAAILLAPVSMLSSDFRPSLPLPHFNKHLLGAEHGDEPRHGGLTLRLGLHQQGSEPSYLDRTEQLQAVLCSTMEKSVLGGQDQLRVRVTELEDEVRNLRKINRDLFDFSTRFITRPAK
B2: TEX10 (protein, UniProt Q9NXF1 1-929)
chain: MTKKRKRQHDFQKVKLKVGKKKPKLQNATPTNFKTKTIHLPEQLKEDGTLPTNNRKLNIKDLLSQMHHYNAGVKQSALLGLKDLLSQYPFIIDAHLSNILSEVTAVFTDKDANVRLAAVQLLQFLAPKIRAEQISPFFPLVSAHLSSAMTHITEGIQEDSLKVLDILLEQYPALITGRSSILLKNFVELISHQQLSKGLINRDRSQSWILSVNPNRRLTSQQWRLKVLVRLSKFLQALADGSSRLRESEGLQEQKENPHATSNSIFINWKEHANDQQHIQVYENGGSQPNVSSQFRLRYLVGGLSGVDEGLSSTENLKGFIEIIIPLLIECWVEAVPPQLATPVGNGIEREPLQVMQQVLNIISLLWKLSKQQDETHKLESWLRKNYLIDFKHHFMSRFPYVLKEITKHKRKEPNKSIKHCTVLSNNIDHLLLNLTLSDIMVSLANASTLQKDCSWIEMIRKFVTETLEDGSRLNSKQLNRLLGVSWRLMQIQPNREDTETLIKAVYTLYQQRGLILPVRTLLLKFFSKIYQTEELRSCRFRYRSKVLSRWLAGLPLQLAHLGSRNPELSTQLIDIIHTAAARANKELLKSLQATALRIYDPQEGAVVVLPADSQQRLVQLVYFLPSLPADLLSRLSRCCIMGRLSSSLAAMLIGILHMRSSFSGWKYSAKDWLMSDVDYFSFLFSTLTGFSKEELTWLQSLRGVPHVIQTQLSPVLLYLTDLDQFLHHWDVTEAVFHSLLVIPARSQNFDILQSAISKHLVGLTVIPDSTAGCVFGVICKLLDHTCVVSETLLPFLASCCYSLLYFLLTIEKGEAEHLRKRDKLWGVCVSILALLPRVLRLMLQSLRVNRVGPEELPVVGQLLRLLLQHAPLRTHMLTNAILVQQIIKNITTLKSGSVQEQWLTDLHYCFNVYITGHPQGPSALATVY

The chains behind the UniProt entries cited, without tags or fusion partners.
UniProt Q8IZL8: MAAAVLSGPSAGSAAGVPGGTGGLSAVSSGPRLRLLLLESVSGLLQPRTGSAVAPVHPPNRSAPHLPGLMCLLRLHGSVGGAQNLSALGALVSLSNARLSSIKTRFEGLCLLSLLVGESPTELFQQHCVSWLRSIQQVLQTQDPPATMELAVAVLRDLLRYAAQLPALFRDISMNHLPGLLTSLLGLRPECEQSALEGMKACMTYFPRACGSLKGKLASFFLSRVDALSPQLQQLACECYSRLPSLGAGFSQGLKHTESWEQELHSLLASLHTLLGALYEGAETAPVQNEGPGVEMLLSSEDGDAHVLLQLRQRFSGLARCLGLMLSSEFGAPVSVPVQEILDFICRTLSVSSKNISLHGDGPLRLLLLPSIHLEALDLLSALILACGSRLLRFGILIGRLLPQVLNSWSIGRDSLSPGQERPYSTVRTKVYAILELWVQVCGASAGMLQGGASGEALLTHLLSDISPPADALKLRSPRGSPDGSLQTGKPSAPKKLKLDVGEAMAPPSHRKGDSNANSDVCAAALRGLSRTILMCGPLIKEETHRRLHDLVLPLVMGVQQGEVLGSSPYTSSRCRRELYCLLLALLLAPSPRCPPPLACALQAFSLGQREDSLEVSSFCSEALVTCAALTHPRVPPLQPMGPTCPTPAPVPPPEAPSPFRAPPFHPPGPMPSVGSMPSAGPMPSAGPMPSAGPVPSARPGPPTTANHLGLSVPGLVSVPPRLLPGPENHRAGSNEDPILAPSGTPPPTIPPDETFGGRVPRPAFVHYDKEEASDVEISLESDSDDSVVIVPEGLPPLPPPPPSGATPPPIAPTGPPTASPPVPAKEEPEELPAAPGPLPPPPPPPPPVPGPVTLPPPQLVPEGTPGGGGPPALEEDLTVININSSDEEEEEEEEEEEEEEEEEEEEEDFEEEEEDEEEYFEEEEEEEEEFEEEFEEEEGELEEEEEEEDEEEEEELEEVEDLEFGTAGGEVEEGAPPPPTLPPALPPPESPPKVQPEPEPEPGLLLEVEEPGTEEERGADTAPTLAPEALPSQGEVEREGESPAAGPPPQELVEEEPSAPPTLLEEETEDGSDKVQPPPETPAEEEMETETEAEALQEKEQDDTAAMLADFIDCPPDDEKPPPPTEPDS
UniProt Q9H4L4: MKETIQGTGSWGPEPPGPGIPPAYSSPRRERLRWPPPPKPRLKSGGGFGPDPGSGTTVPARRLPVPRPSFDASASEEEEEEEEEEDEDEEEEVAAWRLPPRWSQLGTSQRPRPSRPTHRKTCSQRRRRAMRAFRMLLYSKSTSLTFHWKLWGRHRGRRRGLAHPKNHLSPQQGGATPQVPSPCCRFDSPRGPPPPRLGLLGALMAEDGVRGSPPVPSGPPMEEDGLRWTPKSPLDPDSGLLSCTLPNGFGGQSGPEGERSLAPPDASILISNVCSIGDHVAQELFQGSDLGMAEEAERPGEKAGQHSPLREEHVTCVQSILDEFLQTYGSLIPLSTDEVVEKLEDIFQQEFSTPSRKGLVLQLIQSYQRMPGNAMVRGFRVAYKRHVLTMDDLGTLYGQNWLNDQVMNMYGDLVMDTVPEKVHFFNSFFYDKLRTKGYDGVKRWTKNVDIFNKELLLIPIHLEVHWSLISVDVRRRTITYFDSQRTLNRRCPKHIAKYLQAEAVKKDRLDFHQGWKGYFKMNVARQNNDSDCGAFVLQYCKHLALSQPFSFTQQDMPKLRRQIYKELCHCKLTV

Target: PELP1-GFP (proline-, glutamic acid-, and leucine-rich protein 1 fused to GFP) (UniProt Q8IZL8)
Assay: co-IP; PELP1-GFP precipitated with GFP-Trap beads (6 h) from RL95-2-PELP1-GFP and HEK293T-PELP1-GFP cells treated with vehicle or SMIP34 (15 uM, 6 h); high salt lysis buffer (500 mM NaCl, 50 mM HEPES pH 7.5, 5 mM MgCl2, 5% glycerol, 0.5% NP-40, Benzonase); partners detected by Western blotting

binding | Molecule
binds | SENP3 (from UniProt Q9H4L4 1-574)
binds | B1
binds | B2

Source: paper PMC11467795
